Assay results taken from paper PMC10935424.
These are yes or no findings as the source states them, for the method shown. Binding calls can cover weak binding; strength is not graded here. Where a sequence is shown, tags or fusion partners need not be part of it. For part of these data: Binding seen in cells or lysates may run through a third protein.

Tests used:
[1] = biological target: T1, OsSnRK1a–GFP (rice (Oryza sativa)) (UniProt Q852Q2); assay: co-IP; OsSnRK1a-GFP co-expressed with beta subunit-HA in N. benthamiana leaves; IP with GFP-Nanoab-Agarose beads, 4 °C, 2 h; 50 mM Tris-HCl pH 7.5, 150 mM NaCl, 1% IGEPAL CA-630 extraction buffer; blots with anti-GFP and anti-HA; GFP co-expression as negative control
T1 sequence: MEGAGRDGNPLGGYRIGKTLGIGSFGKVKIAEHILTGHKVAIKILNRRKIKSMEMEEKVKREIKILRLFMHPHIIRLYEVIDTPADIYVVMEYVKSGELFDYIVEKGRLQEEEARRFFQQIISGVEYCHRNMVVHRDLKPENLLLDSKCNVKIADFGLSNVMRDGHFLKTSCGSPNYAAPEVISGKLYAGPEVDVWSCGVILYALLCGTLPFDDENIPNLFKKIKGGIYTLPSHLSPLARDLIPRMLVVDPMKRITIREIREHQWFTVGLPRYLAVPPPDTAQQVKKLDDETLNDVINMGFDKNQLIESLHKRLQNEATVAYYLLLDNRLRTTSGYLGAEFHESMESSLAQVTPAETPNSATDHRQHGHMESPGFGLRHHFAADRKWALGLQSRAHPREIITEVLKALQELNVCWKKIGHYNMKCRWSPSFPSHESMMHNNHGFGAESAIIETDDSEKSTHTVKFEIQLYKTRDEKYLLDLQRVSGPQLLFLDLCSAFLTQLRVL

[2] = biological target: T2, OsSnRK1a (yeast two-hybrid fusion) (rice (Oryza sativa)) (UniProt Q852Q2); assay: two-hybrid; pGADT7 and pGBKT7 constructs co-transformed into yeast AH109; growth on SD-Trp-Leu-His-Ade at 30 °C for 3 days; empty AD or BD vectors as negative controls
T2 sequence: T1 sequence

[3] = biological target: T3, OsSnRK1a fused with the N-terminal (nLUC) half of luciferase (rice (Oryza sativa)) (UniProt Q852Q2); assay: split reporter; split-luciferase complementation; nLUC and cLUC fusions transiently co-expressed in N. benthamiana leaves; 1 mM luciferin, luminescence imaged after three days
T3 sequence: T1 sequence

| binding [1] | binding [2] | binding [3] | Substance |
| --- | --- | --- | --- |
| binds |  |  | OsSnRK1β1-HA |
| binds |  |  | OsSnRK1β3-HA |
|  | binds |  | OsSnRK1β1 (yeast two-hybrid fusion) |
|  |  | binds | OsSnRK1β3 fused with the C-terminal (cLUC) half of luciferase |
|  |  | binds | OsSnRK1β1 fused with the C-terminal (cLUC) half of luciferase |
|  | binds |  | OsSnRK1β3 (yeast two-hybrid fusion) |
